Measurements from patent EP3046573B1 (Zealand Pharma A/S, priority 2013, dated 2015).
Some peptides are written in HELM: one residue between dots, names in brackets for other building blocks, links after the first $.

Assays:
[1] = general procedure: Fmoc solid-phase peptide synthesis; Tentagel S PHB-Thr(tBu) resin; COMU; conditions: whole synthesis, analytical HPLC and MS, scale of the general procedure 1 g resin, 0.25 mmol/g
[2] = general procedure: Fmoc solid-phase peptide synthesis; TentaGel S Ram resin (0.25 mmol/g); Tentagel S PHB-Thr(tBu) resin (0.24 mmol/g) for Compound 5; COMU; conditions: analytical HPLC and MS

Substance: PEPTIDE1{[19CD].[gE].A.[Cx].N.T.A.T.[Cx].A.T.Q.R.L.A.E.F.L.H.H.S.S.N.N.F.[Sar].A.[NMeI].L.S.S.T.N.V.G.S.N.T.P.[am]}$PEPTIDE1,PEPTIDE1,4:R3-9:R3$$$V2.0
- final HPLC purity [1]: 90%

Substance: PEPTIDE1{[19CD].[gE].R.[Cx].N.T.A.T.[Cx].A.T.Q.R.[DLeu].A.E.F.L.H.H.S.S.N.N.F.[Sar].A.[NMeI].L.S.S.T.N.V.G.S.N.T.P.[am]}$PEPTIDE1,PEPTIDE1,4:R3-9:R3$$$V2.0
- final HPLC purity ([2]; whole synthesis, scale of the general procedure 1 g resin, 0.25 mmol/g): 80%

Substance: PEPTIDE1{[19CD].[gE].[Har].[Cx].N.T.A.T.[Cx].A.T.Q.R.L.A.E.F.L.H.H.S.S.N.N.F.[Sar].A.[NMeI].L.S.S.T.N.V.G.S.N.T.P.[am]}$PEPTIDE1,PEPTIDE1,4:R3-9:R3$$$V2.0
- final purity (method not given) ([2]; late stage modification step): 90%
